This is one part of the list. This data set is noisy: repeats of one test often differ as much as different tests do.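 Free-swimming zebrafish larvae were assessed for O-bend response probability to dark flashes (naive: first five; training: remaining flashes across four 60-flash blocks; test: later 60-flash block) and for OMR turning toward alternating leftward/rightward LED motion. Six treated larvae were compared against sixty 0.1% DMSO controls; hits required |SSMD|≥2.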
system: Danio rerio larvae (5 dpf, TLF); experiment: Prob-Train (SSMD vs DMSO vehicle); higher = higher than vehicle (e.g. higher dark-flash O-bend response probability, or better optomotor performance); settings: 10 µM; pre-incubation: 30-90 min

Row | Structure (SMILES) | Prob-Train
1 | O=C1NC(=O)C(c2ccccc2)(c2ccccc2)N1 [Phenytoin] | -0.128
2 | CCn1cc(C(=O)O)c(=O)c2cc(F)c(N3CCNCC3)nc21 [Enoxacin] | -0.228
3 | OC(Cn1cncn1)(Cn1cncn1)c1ccc(F)cc1F [Fluconazole] | 0.788
4 | CC(C)NCC(O)COc1cccc2ccccc12.Cl (configuration not stated) [Propranolol HCl] | 0.475
5 | Cc1ccc(S(=O)(=O)Cc2nc(-c3ccc(C(=O)NCc4cccnc4)cc3)oc2C)cc1 | -1.06
6 | CC[C@H]1OC(=O)[C@H](C)[C@H](O[C@@H]2C[C@@](C)(OC)[C@@H](O)[C@H](C)O2)[C@H](C)[C@@H](O[C@@H]2O[C@H](C)C[C@H](N(C)C)[C@@H]2O)[C@](C)(OC)C[C@@H](C)C(=O)[C@H](C)[C@@H](O)[C@]1(C)O [Clarithromycin] | 0.124
7 | Nc1nc(N)c(N=O)c(OCC2CCCCC2)n1 | -0.222
8 | c1ccc(NCc2ccc(CNc3ccccn3)cc2)nc1 | -0.352
9 | NC(=O)c1ccc(I)c([N+](=O)[O-])c1 [Iniparib (BSI-201)] | -0.372
10 | CC1(C)O[C@@H]2C[C@H]3[C@@H]4CCC5=CC(=O)C=C[C@]5(C)[C@@H]4[C@H](O)C[C@]3(C)[C@@]2(C(=O)CO)O1 [Desonide] | -0.245
11 | O=c1oc2cc(O)ccc2s1 [Tioxolone] | -1.49
12 | O=P(O)(O)C(O)(Cc1cccnc1)P(=O)(O)O [Risedronic acid (Actonel)] | -0.0881

Reprinted at random: 2 records from the list
Row | Structure (SMILES) | Prob-Train
6 | CC[C@H]1OC(=O)[C@H](C)[C@H](O[C@@H]2C[C@@](C)(OC)[C@@H](O)[C@H](C)O2)[C@H](C)[C@@H](O[C@@H]2O[C@H](C)C[C@H](N(C)C)[C@@H]2O)[C@](C)(OC)C[C@@H](C)C(=O)[C@H](C)[C@@H](O)[C@]1(C)O [Clarithromycin] | 0.124
2 | CCn1cc(C(=O)O)c(=O)c2cc(F)c(N3CCNCC3)nc21 [Enoxacin] | -0.228
